Laboratory results published in the supplement of paper PMC10849652.
The list shows a part of the results.

By UniProt entry, the sequences of proteins in these tests, tags left out. Where a name states a change or a piece, a line headed by the entry shows the natural chain unless it says otherwise.
UniProt Q9NZ72: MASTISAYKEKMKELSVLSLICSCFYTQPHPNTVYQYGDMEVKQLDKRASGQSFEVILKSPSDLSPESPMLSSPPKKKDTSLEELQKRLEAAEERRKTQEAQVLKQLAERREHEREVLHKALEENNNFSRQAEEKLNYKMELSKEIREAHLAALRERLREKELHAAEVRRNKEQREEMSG
UniProt O43815: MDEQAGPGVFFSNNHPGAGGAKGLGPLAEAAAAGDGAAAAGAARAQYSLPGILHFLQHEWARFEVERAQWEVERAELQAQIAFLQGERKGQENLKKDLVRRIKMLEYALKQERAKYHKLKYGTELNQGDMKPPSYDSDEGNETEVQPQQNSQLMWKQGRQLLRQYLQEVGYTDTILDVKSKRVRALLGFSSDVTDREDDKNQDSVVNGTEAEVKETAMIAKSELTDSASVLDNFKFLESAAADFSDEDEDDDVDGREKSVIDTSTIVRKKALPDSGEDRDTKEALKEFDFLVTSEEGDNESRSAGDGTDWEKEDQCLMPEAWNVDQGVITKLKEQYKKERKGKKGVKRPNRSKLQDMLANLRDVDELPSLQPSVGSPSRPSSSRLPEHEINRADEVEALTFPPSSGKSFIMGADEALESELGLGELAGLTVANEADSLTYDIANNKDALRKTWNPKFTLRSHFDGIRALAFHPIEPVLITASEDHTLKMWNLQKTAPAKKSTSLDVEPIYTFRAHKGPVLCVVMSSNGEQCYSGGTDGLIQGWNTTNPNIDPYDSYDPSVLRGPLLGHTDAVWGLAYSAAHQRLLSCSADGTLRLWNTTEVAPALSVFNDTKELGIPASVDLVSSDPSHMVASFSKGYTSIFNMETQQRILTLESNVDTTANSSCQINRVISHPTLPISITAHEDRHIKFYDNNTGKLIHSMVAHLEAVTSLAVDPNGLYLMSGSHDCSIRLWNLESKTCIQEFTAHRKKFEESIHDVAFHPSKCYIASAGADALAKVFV
UniProt Q4KMP7: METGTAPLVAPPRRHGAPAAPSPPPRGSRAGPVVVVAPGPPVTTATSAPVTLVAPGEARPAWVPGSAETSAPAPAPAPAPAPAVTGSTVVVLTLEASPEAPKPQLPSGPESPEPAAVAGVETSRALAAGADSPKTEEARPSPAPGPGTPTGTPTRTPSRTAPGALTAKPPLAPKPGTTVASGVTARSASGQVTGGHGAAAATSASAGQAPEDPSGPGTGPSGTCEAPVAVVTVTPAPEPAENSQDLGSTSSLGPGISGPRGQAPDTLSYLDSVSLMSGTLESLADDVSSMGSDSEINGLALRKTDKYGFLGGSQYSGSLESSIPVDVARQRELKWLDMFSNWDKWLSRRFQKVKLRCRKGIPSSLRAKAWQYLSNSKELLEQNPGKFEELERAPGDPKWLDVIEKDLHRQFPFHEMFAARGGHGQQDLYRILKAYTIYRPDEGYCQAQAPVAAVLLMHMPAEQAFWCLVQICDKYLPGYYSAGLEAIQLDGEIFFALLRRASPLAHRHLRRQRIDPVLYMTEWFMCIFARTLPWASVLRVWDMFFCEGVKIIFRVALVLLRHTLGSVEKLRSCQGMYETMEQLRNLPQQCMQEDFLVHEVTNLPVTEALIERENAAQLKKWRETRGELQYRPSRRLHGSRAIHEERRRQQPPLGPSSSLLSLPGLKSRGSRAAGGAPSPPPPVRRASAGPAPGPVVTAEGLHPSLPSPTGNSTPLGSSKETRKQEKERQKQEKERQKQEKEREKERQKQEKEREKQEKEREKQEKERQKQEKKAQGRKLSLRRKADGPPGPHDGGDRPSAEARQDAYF
UniProt Q8NHG7: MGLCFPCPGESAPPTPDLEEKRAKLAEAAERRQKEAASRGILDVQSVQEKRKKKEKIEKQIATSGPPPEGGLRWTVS
UniProt Q8TCJ2: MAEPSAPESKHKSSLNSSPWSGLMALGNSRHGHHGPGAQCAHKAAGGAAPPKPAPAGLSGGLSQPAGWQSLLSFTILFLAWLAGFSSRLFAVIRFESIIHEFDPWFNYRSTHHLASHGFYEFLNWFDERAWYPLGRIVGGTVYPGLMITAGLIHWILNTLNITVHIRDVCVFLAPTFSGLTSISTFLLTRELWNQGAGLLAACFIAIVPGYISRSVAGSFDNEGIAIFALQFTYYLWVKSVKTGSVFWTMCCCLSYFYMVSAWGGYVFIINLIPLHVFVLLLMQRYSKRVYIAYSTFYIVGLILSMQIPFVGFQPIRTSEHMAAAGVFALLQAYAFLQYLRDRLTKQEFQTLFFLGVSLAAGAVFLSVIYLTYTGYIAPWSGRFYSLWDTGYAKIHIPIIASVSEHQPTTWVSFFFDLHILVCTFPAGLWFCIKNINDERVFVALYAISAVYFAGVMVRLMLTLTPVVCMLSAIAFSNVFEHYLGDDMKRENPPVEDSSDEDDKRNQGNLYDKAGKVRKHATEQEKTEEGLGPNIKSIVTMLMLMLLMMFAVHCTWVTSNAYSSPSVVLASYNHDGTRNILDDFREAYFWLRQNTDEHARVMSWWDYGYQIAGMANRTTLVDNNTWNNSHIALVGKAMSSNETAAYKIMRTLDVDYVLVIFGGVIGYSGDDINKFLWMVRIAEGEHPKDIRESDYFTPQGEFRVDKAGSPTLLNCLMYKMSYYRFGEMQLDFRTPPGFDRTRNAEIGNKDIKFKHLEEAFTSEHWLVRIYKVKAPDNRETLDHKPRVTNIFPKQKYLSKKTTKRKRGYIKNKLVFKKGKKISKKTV
UniProt P53597: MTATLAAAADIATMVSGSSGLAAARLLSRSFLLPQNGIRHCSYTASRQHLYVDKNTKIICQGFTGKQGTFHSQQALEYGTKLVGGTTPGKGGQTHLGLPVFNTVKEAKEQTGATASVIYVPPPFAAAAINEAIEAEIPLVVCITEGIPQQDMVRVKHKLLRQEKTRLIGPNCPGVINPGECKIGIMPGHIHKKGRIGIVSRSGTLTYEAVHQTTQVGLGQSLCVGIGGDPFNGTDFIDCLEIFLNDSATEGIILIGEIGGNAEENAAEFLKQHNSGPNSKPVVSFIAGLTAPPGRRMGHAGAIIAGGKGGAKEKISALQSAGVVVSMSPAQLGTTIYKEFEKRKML
UniProt Q9P2R7: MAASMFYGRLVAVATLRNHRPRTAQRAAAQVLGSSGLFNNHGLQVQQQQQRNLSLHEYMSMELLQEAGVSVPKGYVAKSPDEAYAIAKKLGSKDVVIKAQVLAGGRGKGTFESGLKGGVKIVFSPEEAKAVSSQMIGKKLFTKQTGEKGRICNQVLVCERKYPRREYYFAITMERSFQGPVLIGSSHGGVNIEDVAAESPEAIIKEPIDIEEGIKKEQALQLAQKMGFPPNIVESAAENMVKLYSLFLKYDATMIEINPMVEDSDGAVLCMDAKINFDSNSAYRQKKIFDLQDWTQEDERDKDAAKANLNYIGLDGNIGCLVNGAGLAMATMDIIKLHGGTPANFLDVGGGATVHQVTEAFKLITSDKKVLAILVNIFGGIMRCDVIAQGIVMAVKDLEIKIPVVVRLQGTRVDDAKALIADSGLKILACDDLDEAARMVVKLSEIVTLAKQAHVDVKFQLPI
UniProt A2RTX5: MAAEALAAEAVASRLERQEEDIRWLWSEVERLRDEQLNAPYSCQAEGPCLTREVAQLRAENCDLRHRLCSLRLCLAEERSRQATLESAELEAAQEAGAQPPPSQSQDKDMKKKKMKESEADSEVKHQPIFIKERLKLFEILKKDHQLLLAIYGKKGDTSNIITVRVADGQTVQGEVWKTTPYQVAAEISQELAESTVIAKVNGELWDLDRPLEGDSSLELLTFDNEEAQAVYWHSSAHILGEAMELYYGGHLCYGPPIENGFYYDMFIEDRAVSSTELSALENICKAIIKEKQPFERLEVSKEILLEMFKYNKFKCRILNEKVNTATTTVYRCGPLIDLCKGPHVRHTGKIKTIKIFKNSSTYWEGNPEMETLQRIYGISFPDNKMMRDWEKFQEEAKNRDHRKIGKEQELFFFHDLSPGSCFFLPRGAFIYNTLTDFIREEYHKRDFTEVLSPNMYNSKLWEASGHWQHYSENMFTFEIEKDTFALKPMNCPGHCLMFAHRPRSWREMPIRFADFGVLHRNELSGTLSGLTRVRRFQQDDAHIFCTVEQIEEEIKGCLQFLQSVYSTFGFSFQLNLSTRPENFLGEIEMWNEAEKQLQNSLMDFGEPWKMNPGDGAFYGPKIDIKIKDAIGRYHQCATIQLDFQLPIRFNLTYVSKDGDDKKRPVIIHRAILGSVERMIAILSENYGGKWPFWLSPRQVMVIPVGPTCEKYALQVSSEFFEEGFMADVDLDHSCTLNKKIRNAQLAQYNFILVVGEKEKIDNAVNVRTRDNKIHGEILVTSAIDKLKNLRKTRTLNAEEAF
UniProt Q15526: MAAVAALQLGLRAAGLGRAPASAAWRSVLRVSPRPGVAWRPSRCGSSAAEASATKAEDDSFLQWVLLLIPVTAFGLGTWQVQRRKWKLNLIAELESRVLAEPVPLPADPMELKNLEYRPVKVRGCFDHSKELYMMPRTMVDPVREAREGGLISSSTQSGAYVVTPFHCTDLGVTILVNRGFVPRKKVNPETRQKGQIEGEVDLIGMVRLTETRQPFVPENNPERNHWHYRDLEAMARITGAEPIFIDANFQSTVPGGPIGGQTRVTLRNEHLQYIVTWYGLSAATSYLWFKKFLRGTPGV
UniProt Q9BW92: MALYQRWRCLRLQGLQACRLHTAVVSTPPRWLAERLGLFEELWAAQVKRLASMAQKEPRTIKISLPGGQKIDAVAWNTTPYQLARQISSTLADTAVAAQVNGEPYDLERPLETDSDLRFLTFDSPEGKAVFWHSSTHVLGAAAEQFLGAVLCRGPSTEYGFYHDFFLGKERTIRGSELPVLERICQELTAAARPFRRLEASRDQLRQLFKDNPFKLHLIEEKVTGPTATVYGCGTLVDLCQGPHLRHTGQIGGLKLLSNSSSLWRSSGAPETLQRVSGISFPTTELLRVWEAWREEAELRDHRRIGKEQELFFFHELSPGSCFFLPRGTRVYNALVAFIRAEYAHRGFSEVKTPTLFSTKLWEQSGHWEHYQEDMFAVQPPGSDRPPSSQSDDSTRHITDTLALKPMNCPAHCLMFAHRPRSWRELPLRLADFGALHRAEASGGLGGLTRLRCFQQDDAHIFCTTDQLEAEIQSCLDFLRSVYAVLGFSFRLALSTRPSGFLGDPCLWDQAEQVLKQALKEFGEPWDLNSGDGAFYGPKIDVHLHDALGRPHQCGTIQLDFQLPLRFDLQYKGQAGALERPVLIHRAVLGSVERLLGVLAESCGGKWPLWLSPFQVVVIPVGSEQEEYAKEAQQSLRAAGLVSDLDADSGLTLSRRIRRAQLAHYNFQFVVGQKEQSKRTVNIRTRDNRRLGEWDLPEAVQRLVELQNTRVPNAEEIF
UniProt P61764, whole entry, looked up: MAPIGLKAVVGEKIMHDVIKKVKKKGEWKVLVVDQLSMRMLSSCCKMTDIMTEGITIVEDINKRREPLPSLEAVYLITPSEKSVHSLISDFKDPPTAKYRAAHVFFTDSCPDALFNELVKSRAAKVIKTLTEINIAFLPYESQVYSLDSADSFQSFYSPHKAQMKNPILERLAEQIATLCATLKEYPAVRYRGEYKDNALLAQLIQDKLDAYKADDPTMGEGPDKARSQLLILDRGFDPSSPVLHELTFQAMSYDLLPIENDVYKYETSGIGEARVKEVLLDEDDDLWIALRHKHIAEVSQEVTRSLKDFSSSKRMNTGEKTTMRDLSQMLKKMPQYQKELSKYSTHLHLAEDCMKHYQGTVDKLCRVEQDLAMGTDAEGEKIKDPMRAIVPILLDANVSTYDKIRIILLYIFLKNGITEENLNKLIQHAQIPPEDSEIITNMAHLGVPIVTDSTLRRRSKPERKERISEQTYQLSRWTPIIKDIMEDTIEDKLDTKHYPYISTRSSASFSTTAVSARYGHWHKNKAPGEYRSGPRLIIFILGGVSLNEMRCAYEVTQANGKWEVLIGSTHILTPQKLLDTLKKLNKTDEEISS
UniProt P08247, whole entry, looked up: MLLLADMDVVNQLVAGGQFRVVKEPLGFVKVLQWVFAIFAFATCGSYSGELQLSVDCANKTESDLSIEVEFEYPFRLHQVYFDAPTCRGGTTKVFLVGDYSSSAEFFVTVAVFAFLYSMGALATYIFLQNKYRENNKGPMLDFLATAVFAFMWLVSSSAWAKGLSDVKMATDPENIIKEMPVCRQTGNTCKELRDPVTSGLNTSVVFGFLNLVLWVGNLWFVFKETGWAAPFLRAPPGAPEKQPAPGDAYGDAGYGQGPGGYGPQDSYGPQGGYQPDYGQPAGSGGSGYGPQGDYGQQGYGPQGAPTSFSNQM
UniProt Q9P2W9: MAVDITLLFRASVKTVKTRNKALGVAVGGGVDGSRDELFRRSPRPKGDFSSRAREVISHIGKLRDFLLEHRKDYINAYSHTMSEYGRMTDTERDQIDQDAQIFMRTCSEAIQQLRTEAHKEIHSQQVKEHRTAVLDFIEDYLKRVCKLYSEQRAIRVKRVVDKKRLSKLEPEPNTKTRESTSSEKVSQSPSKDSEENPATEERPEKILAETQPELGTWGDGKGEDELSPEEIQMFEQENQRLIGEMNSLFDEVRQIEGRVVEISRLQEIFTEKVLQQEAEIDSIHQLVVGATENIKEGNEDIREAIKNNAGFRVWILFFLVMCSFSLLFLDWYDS

How the values were obtained:
Test in all cases: log2 fold change, soluble protein after heating vs DMSO (PISA); higher = thermal stabilisation; K562 cells, 10 uM, 30 min; active = over 0.2 and 3.5 SD of the protein, either way, in both replicates (recomputed)
[1] = compound: C1=CC=C(C=C1)[C@H](COC2=CC3=C(C=C2)NC(=O)N3)NC(=O)C4=CC=CN(C4=O)CC5=CC(=C(C=C5)F)F
Summary of the method: (§1)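 K562 cells at 2×10^6 cells/mL were given 10 μM compound for 30 min. Aliquots then went through 3 min of heating across 48°C-58°C, were pooled, and were extracted in PBS with 0.5% NP-40 at 4°C, and the supernatant after 21,000xg for 90 min was quantified by TMTpro 16plex LC-MS/MS with channel sums equalised. Thermal stability relative to control samples, from duplicates, is given as log2 fold change.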

[2] = compound: CC1=C(SC2=C1C(=N[C@H](C3=NN=C(N32)C)CC(=O)N)C4=CC=C(C=C4)Cl)C
Summary of the method: as §1

[3] = compound: CC1=C2C(=CC=C1)N=C(N(C2=O)C3=CC=CC=C3C)CN4C=NC5=C(N=CN=C54)N
Summary of the method: as §1

[4] = compound: Cc1sc2c(c1C)C(c1ccc(Cl)cc1)=N[C@@H](CC(=O)OC(C)(C)C)c1nnc(C)n1-2
Summary of the method: as §1

[5] = compound: c1ccc([C@@H]2C[C@H]2NC2CCNCC2)cc1
Summary of the method: as §1

Measured: log2 fold change

STMN3 (UniProt Q9NZ72)
inactive: [1] 0.021 | [2] 0.022 | [3] -0.015 | [4] 0.032 | [5] 0.063

STOML2 (UniProt Q9UJZ1)
inactive: [1] 0.016 | [2] 0.007 | [3] 0.007 | [4] -0.01 | [5] -0.059

STRN (UniProt O43815)
inactive: [1] -0.025 | [2] 0.011 | [3] -0.003 | [4] -0.108 | [5] -0.017

TBC1D10B (UniProt Q4KMP7)
inactive: [1] -0.021 | [2] 0.062 | [3] 0.014 | [4] -0.026 | [5] 0.006

SYNE1 (UniProt Q8NF91)
inactive: [1] -0.009 | [2] 0.24 | [3] 0.223 | [4] -0.018 | [5] -0.052

SVIP (UniProt Q8NHG7)
inactive: [1] 0.036 | [2] 0.046 | [3] 0.028 | [4] -0.084 | [5] -0.022

STT3B (UniProt Q8TCJ2)
inactive: [1] 0.066 | [2] -0.056 | [3] -0.014 | [4] 0.003 | [5] 0.027

SUCLG1 (UniProt P53597)
inactive: [1] 0.004 | [2] 0.073 | [3] 0.042 | [4] -0.021 | [5] -0.041

STRAP isoform 2 (UniProt Q9Y3F4)
inactive: [1] -0.004 | [2] 0.016 | [3] 0.007 | [4] 0.002 | [5] -0.007

SUMO1 (UniProt P63165)
inactive: [1] -0.004 | [2] -0.097 | [3] -0.048 | [4] 0.231 | [5] 0.152

SUCLA2 (UniProt Q9P2R7)
inactive: [1] -0.029 | [2] 0.07 | [3] 0.113 | [4] -0.017 | [5] -0.044

TARSL2 (UniProt A2RTX5)
inactive: [1] -0.04 | [2] 0.079 | [3] 0.067 | [4] 0.006 | [5] -0.056

Random excerpt: 2 records from the list.
STRAP isoform 2 (UniProt Q9Y3F4)
inactive: [1] -0.004 | [2] 0.016 | [3] 0.007 | [4] 0.002 | [5] -0.007

SUMO1 (UniProt P63165)
inactive: [1] -0.004 | [2] -0.097 | [3] -0.048 | [4] 0.231 | [5] 0.152

Next part.

SURF1 (UniProt Q15526)
inactive: [1] -0.015 | [2] -0.018 | [3] 0.15 | [4] -0.101 | [5] 0.063

SUB1 (UniProt P53999)
inactive: [1] -0.013 | [2] -0.004 | [3] 0.016 | [4] -0.005 | [5] 0.018

STRADA (UniProt Q7RTN6)
inactive: [1] -0.006 | [2] 0.091 | [3] 0.005 | [4] 0.044 | [5] 0.07

STRN3 (UniProt Q13033)
inactive: [1] 0.016 | [2] 0.006 | [3] 0.013 | [4] 0.001 | [5] 0.002

TARS2 (UniProt Q9BW92)
inactive: [1] -0.018 | [2] 0.025 | [3] 0.101 | [4] -0.019 | [5] -0.023

TAF7 (UniProt Q15545)
inactive: [1] 0.047 | [2] 0.086 | [3] -0.036 | [4] -0.015 | [5] 0

TAL1 (UniProt P17542)
inactive: [1] 0.016 | [2] -0.027 | [3] 0.044 | [4] -0.054 | [5] -0.004

STXBP1 (UniProt P61764)
inactive: [1] -0.106 | [2] -0.027 | [3] 0.339 | [4] -0.069 | [5] -0.128

SYP (UniProt P08247)
inactive: [1] 0.029 | [2] 0.095 | [3] 0.102 | [4] -0.02 | [5] 0.011

STX18 (UniProt Q9P2W9)
inactive: [1] -0.05 | [2] 0.016 | [3] 0.086 | [4] 0.034 | [5] -0.05

STUB1 (UniProt Q9UNE7)
inactive: [1] 0.001 | [2] -0.032 | [3] 0.019 | [4] 0.146 | [5] -0.016

TACC1 isoform 2 (UniProt O75410)
inactive: [1] -0.029 | [2] 0.039 | [3] 0.087 | [4] 0.002 | [5] 0.017
